These results are taken from PMC8226452 (Pharmaceuticals, 2021).

The data set in a line: general procedure: Fmoc solid-phase peptide synthesis; rink amide resin; HBTU/DIPEA. The note with it: conjugation step; for final HPLC purity: analytical HPLC.

“hybrid, chelator, and fluorescent dye-modified PESIN homodimer 5”: the conjugation yield worked out at 40% yield and the “final HPLC purity” value stood at 95% purity.

“hybrid, chelator, and fluorescent dye-modified PESIN homotetramer 6”: the conjugation yield turned out to be 35% yield and the “final HPLC purity” value is 95% purity.
